# Percent effect of library compounds

The values are deposited in ChEMBL (CHEMBL3988442, “University of Dundee, Small-Polar-MMV Screening Library” (2021)).

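Whole-parasite assay of Trypanosoma brucei over 72 hours; the read-out is not stated. Concentration: 30 µM. The record gives no direction; compounds that gave an IC50 in retests scored well above the rest, so higher reads as stronger inhibition. Values scatter widely below zero; nearly all retest evidence comes from the higher of the two concentrations used. Size under these conditions: about 64,000 compounds, about 940 of them at 50% or above in at least one test.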

Results are given as percent effect.
How 0% and 100% were set is not recorded. Most values in the screen are low, and negative values occur.
This is an unselected part of the compounds tested.

* CCc1nc2c(NCC3COc4ccccc4C3)ncnc2o1 (stereo unspecified) | 4.062%
* CS(=O)(=O)NCc1nnc2n1CCN(Cc1ccncc1)C2 | -346.7%
* Cl.Cn1cc([C@@H]2CN(S(=O)(=O)c3cccs3)C[C@H]2N)c2ccncc21 | 49.72%
* CCC(CNS(C)(=O)=O)Oc1ccccc1F (stereo unspecified) | -5.037%
* COCCc1nnc(NC(=O)CCCc2ccccc2)o1 | 8.628%
* CCOCc1nc(CSc2ccncc2)n(C)n1 | -38.02%
* CCn1nnc(NCc2cc(Br)cc(Br)c2OC)n1 | -26.31%
* CC(C)NC(=O)N1CCC2(CCC(=O)N2CCN2CCCC2)CC1.O=C(O)C(F)(F)F | -10.48%
* N#Cc1ccc(CN2CC3(CCCCN3c3cccnc3)CC2=O)cc1.O=C(O)C(F)(F)F (stereo unspecified) | -24.99%
* COc1ccc(Cl)cc1-n1cnc(CCNC(C)=O)c1 | -20.78%
* Cc1cc(C)n(CC2CCCN2C(=O)c2c[nH]c3ncccc23)n1 (stereo unspecified) | -48.43%
* CCN(CCNC(=O)C1CCCN(C(C)=O)C1)c1ccccc1C (stereo unspecified) | 8.896%
* CC(NC(=O)N1CCN(c2ccc(Cl)cc2)CC1)C(=O)N1CCSCC1 (stereo unspecified) | 25.8%
* [H][C@]12CC[C@]([H])(CN(C(=O)c3ccc(Cl)cc3)C1)N(CCOC)C2 | -6.029%
* COc1cc(N2CC[C@H](O)[C@@H]2Cc2ccccc2)ncn1 | -36.1%
* Cc1c(NCc2cccc(C#N)c2)cccc1S(=O)(=O)NC1CC1 | -8.239%
* Cc1noc(C2CCCN(CC(=O)N3CCNC(=O)C3)C2)n1 (stereo unspecified) | -16.28%
* O=C(CN1CCCC1Cn1cncn1)NCCOc1ccccc1 (stereo unspecified) | -10.97%
* CC(C)(C)c1ncc(C(=O)NCCNC(=O)c2ccco2)s1 | -11.37%
* Cc1nnc(NCc2cccc(OCC3CCCO3)c2)c(C#N)c1C (stereo unspecified) | -20.79%
* Cn1cc(CN2CCC[C@]3(C[C@H](Oc4ccccn4)CO3)C2)cn1 | 0.7583%
* CN(Cc1nc(-c2cccnc2)no1)C(=O)c1cccn1C | -102.6%
* Cc1nc(CN(C)CC2CCCN2c2cccnn2)oc1C (stereo unspecified) | -5.889%
* CCN(c1ccsc1C(=O)N1CCCCC1)S(=O)(=O)c1ccccc1 | -30.59%
* Cc1ccc2nc(C)c(C)c(C(=O)N[C@H]3COC[C@@H]3N3CCCC3)c2c1 | -9.944%
* CN(C)c1cc2c(nn1)CCN(C(=O)c1cc3c(s1)CCCC3)C2 | 36.08%
* CC(C)NC(=O)CCCn1cnc2ccccc2c1=O | -39.81%
* Cc1cnn(CCCOc2ccc3c(c2)OCO3)c1 | -13.65%

The first 2 entries again:

Compound,percent effect
CCc1nc2c(NCC3COc4ccccc4C3)ncnc2o1 (stereo unspecified),4.062
CS(=O)(=O)NCc1nnc2n1CCN(Cc1ccncc1)C2,-346.7